Data from patent publication US9512120B2, “Microbicidally active imidazopyridine derivatives” (Syngenta Participations AG, priority 2013, dated 2016).
Some entries share one result that the patent states for a list of compounds.

The compounds below were run on Phytophthora infestans. Settings: 200 ppm; tomato leaf disks, preventative, inoculated 1 day after application; assessed 5-7 days after application.
Type: in vivo

SMILES	control of Phytophthora infestans (percent disease control compared to untreated)
Nc1ncnn1-c1nc2cncc(-c3ccccc3Cl)c2n1C1CC1 [Compound 125, 2-[7-(2-chlorophenyl)-1-cyclopropylimidazo[4,5-c]pyridin-2-yl]-1,2,4-triazol-3-amine]	at least 80%
CCn1c(-n2ncnc2N)nc2cncc(/C(C)=N\OC/C=C(\C)Cl)c21 [Compound 153, 2-[7-[(Z)-N-[(E)-3-chlorobut-2-enoxy]-C-methyl-carbonimidoyl]-1-ethyl-imidazo[4,5-c]pyridin-2-yl]-1,2,4-triazol-3-amine]	at least 80%

These compounds were tested on Fusarium culmorum. Settings: 20 ppm; wheat spikelets, assessed 6 dpi.
Type: in vivo

SMILES	control of Fusarium culmorum (preventative fungicidal activity)
Nc1ncnn1-c1nc2cnccc2n1C1CCCCC1 [Compound 2, 2-(1-cyclohexylimidazo[4,5-c]pyridin-2-yl)-1,2,4-triazol-3-amine]	at least 80%
CCn1c(-n2ncnc2N)nc2cncc(-c3ccccc3F)c21 [Compound 79, 2-[1-ethyl-7-(2-fluorophenyl)imidazo[4,5-c]pyridin-2-yl]-1,2,4-triazol-3-amine]	at least 80%
CCCn1c(-n2ncnc2N)nc2cnccc21 [Compound 13, 2-(1-propylimidazo[4,5-c]pyridin-2-yl)-1,2,4-triazol-3-amine]	at least 80%
CCn1c(-n2ncnc2N)nc2cncc(-c3cccc(OC)c3F)c21 [Compound 93, 2-[1-ethyl-7-(2-fluoro-3-methoxyphenyl)imidazo[4,5-c]pyridin-2-yl]-1,2,4-triazol-3-amine]	at least 80%
CCn1c(-n2ncnc2N)nc2cncc(-c3cccc(F)c3F)c21 [Compound 102, 2-[7-(2,3-difluorophenyl)-1-ethylimidazo[4,5-c]pyridin-2-yl]-1,2,4-triazol-3-amine]	at least 80%
CCn1c(-n2ncnc2N)nc2cncc(-c3cccc(Cl)c3F)c21 [Compound 90, 2-[7-(3-chloro-2-fluorophenyl)-1-ethylimidazo[4,5-c]pyridin-2-yl]-1,2,4-triazol-3-amine]	at least 80%
CCn1c(-n2ncnc2N)nc2cncc(-c3ccc(Cl)cc3F)c21 [Compound 98, 2-[7-(4-chloro-2-fluorophenyl)-1-ethylimidazo[4,5-c]pyridin-2-yl]-1,2,4-triazol-3-amine]	at least 80%
